# Primary screen of a compound library

Source: ChEMBL document CHEMBL3988442, “University of Dundee, Small-Polar-MMV Screening Library” (2021).

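Whole-cell assay for inhibitors of Mycobacterium tuberculosis growth, labelled Cornell in the record; the read-out is not stated. The concentration is filed as 10 mM, unlikely as a test dose, so the dose is not known. Higher means stronger inhibition (inferred from two other growth screens of the library). Size under these conditions: about 53,000 compounds, about 900 of them at 50% or above in at least one test.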

Each number is a percent effect as filed. How 0% and 100% were set is not recorded. Most values in the screen are low, and negative values occur. Compounds were drawn at random from those tested, without regard to their results.

{"compound": "Cl.c1nc(CCC2CCCCN2)cc(N2CCCC2)n1", "stereo": "stereo unspecified", "percent effect": -7.244}
{"compound": "Cc1noc(C2CCCN(C(=O)c3cc(-c4ccccc4)on3)C2)n1", "stereo": "stereo unspecified", "percent effect": -60.63}
{"compound": "Cc1nc(CCN2CCC(Oc3ccccc3F)CC2)c(C)s1", "percent effect": 4.042}
{"compound": "CC(c1cccnc1)N(C)Cc1cc2cc3c(cc2[nH]c1=O)OCO3", "stereo": "stereo unspecified", "percent effect": -49.95}
{"compound": "CNc1cncc(C2CCCN2Cc2ccccn2)n1", "stereo": "stereo unspecified", "percent effect": -1.765}
{"compound": "Cc1ncc(CNC2CCc3nc(C(C)C)nn3C2)s1", "stereo": "stereo unspecified", "percent effect": 14.17}
{"compound": "COc1cc(OC)cc(C(=O)NCCCNc2ncccn2)c1", "percent effect": -28.9}
{"compound": "Cc1nc(-c2nnc(SCC(=O)O)n2C(C)c2ccccc2)co1", "stereo": "stereo unspecified", "percent effect": -11.54}
{"compound": "CCOc1cc(CN(C)CCOC)ccc1OC(F)F", "percent effect": -5.588}
{"compound": "Cc1cc(C(=O)N2CCN(c3nc4ccccc4s3)CC2)no1", "percent effect": -60.39}
{"compound": "O=C(c1cc2c(s1)CCCCC2)N1CCC(c2ncc[nH]2)CC1", "percent effect": -5.306}
{"compound": "O=C(O)C(F)(F)F.c1cnc(N2CCOCC3(CCCN(Cc4cc[nH]n4)C3)C2)nc1", "stereo": "stereo unspecified", "percent effect": 28.82}
{"compound": "Cn1cc(C(=O)N2CCCC(Cc3cncc4ccccc34)C2)cn1", "stereo": "stereo unspecified", "percent effect": 11.27}
{"compound": "COc1c(C2CCCN2CC(=O)Nc2nc(C)cs2)c(C)nn1C", "stereo": "stereo unspecified", "percent effect": 7.818}
{"compound": "CC(C)C(C)N(Cc1cnc2ccccc2n1)Cc1ccco1", "stereo": "stereo unspecified", "percent effect": -3.285}
{"compound": "O=C(O)C(F)(F)F.[H][C@]12CCC[C@@]1(COCc1ccncc1)CN(C(=O)c1occc1C)C2", "percent effect": 25.13}
{"compound": "O=C(c1ccn(-c2cccc(Cl)c2)n1)N1CCN(C2CC2)CC1", "percent effect": 6.688}
{"compound": "Cc1cccc(NC(=O)NC2CCN(C3CCOC3)CC2)c1", "stereo": "stereo unspecified", "percent effect": 21.23}
{"compound": "O=C(c1cc(-c2cccs2)on1)N1CCCCC1Cn1cccn1", "stereo": "stereo unspecified", "percent effect": 6.3}
{"compound": "O=C(O)C(F)(F)F.[H][C@@]12CCN(c3cnccn3)C[C@]1([H])CN(C(=O)CC1CC1)C2", "percent effect": 4.459}
{"compound": "CN(C)C(=O)NC1COC2(CCN(Cc3ccc(N(C)C)cc3)CC2)C1", "stereo": "stereo unspecified", "percent effect": 30.34}
{"compound": "Cc1sc2nc(C(F)(F)F)nc(N3CCN(S(C)(=O)=O)CC3)c2c1C", "percent effect": -17.35}
{"compound": "O=C(O)C(F)(F)F.[H][C@]12CN(c3ncccn3)C[C@@]1(C(=O)N(C)C)CCCN(S(=O)(=O)CC)C2", "percent effect": 32.66}
{"compound": "Cc1nc2ccnn2c(C)c1CCC(=O)N1CCN(C2CC2)CC1", "percent effect": 8.686}
{"compound": "Cc1cc(C)nc(N2CC=C[C@@H]2C(=O)NCc2ccc3c(c2)OCO3)n1.Cl", "percent effect": 20.17}
{"compound": "Cc1nc2ccc(C(=O)N3CCC(COc4ccccn4)CC3)cc2[nH]1", "percent effect": -10.11}
{"compound": "O=C(c1c[nH]c2ccccc2c1=O)N1CCSCC1", "percent effect": 43.81}
{"compound": "O=C(C1CC=CC1)N1CCC2(CCN(Cc3cccc(F)c3)CC2)C1", "percent effect": 14.65}
{"compound": "O=C(Nc1ccccc1)C1CN(Cc2nccs2)CC12CCOCC2", "stereo": "stereo unspecified", "percent effect": -24.25}
{"compound": "Cc1ccccc1S(=O)(=O)NC(=O)C1(c2ccccc2)CCC1", "percent effect": 22.93}
{"compound": "CC(=O)NCC(=O)N1Cc2cc(C#N)ccc2C1c1cnco1", "stereo": "stereo unspecified", "percent effect": -39.35}
{"compound": "COCCN(Cc1ccc(F)cc1Cl)C(=O)c1cc[n+]([O-])cc1", "percent effect": 5.763}
{"compound": "CC(=O)N1CC[C@H](c2nnc(Cc3c[nH]c4ccccc34)o2)C1", "percent effect": -14.87}
{"compound": "C[C@@H]1CN(c2nc(N)nc3c2CCC3)CC[C@@]1(O)C1CCC1", "percent effect": -15.13}
{"compound": "Cc1cc(C)n(CC(=O)N2Cc3cnc(C(C)(C)C)nc3C2)n1", "percent effect": 9.27}
{"compound": "CC(C)CCN1C(=O)c2ccc(C(=O)NCCc3c[nH]cn3)cc2C1=O", "percent effect": -5.345}
{"compound": "CCOCc1ccccc1NC(=O)NC1CCN(c2ncccn2)CC1", "percent effect": -5.564}
{"compound": "CCn1cc(CNc2ccc(F)c(F)c2)cn1", "percent effect": -9.399}
{"compound": "Cc1ccc(N(C)CC(O)COCc2ccccc2F)c(C)c1", "stereo": "stereo unspecified", "percent effect": 16.47}
{"compound": "CC(Cc1cccnc1)Nc1ncnc2cccc(F)c12", "stereo": "stereo unspecified", "percent effect": -5.767}

Some entries from above, unchanged:

Compound,percent effect
Cc1ccc(N(C)CC(O)COCc2ccccc2F)c(C)c1 (stereo unspecified),16.47%
CNc1cncc(C2CCCN2Cc2ccccn2)n1 (stereo unspecified),-1.765%
Cc1nc2ccnn2c(C)c1CCC(=O)N1CCN(C2CC2)CC1,8.686%